## Primary screen of a compound library

Amino acid sequences for entries named in this document (tags omitted).
UniProt P9WPC5, whole entry: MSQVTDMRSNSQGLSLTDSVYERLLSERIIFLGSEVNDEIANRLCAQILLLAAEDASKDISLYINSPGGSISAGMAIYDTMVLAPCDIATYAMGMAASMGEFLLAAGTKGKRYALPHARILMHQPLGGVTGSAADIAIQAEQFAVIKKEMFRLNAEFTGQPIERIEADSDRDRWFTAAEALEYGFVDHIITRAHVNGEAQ
UniProt P9WPC3, whole entry partner: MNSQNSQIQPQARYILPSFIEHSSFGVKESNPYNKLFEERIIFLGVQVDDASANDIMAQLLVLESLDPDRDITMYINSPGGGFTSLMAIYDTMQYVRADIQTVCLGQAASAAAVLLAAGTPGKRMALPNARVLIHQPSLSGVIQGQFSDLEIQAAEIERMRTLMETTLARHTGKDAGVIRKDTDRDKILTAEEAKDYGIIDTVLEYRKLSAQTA

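ClpP1P2, Mycobacterium tuberculosis (UniProt P9WPC5 and UniProt P9WPC3). Protease assay of ClpP1P2, read by the AMC dye that it sets free. Concentration: 50 µM. Direction is inferred from only a few compounds that gave an IC50; most scored high, so higher reads as stronger inhibition. Most other retested compounds had strongly negative values. Size under these conditions: about 69,000 compounds, about 10 of them at 50% or above in at least one test.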

Values are the deposited “Percent Effect”, in %. The record does not define 0% and 100%; most values in the screen are far below 50% and negative numbers occur (in some assays of this library far below -100). Compounds were drawn at random from those tested, without regard to their results.

SMILES | percent effect
CCc1nc(C2CCCN(C(=O)c3ccc4[nH]cnc4c3)C2)no1 (centres undefined) | -16.54%
Cc1cc(NC(=O)Cn2ccc(=O)c3ccccc32)[nH]n1 | -1.824%
Cc1nc(C)n(CC2CCCN(CC(=O)Nc3nnc(C)s3)C2)n1 (centres undefined) | -16.4%
Cc1ccc(-c2c[nH]c([C@@H]3COCCN3Cc3ncc[nH]3)n2)cc1 | -12.07%
O=C(OCc1ccccc1)N1CC[C@H]2CC(CO)O[C@@H]2C1 (some centres undefined) | -2.344%
Cn1cc(C(=O)N2CC[C@@]3(O)CCN(C(=O)C4CCC4)C[C@H]3C2)cn1 | 14.26%
O=C(NCC1CC1)C1CCC2(CN(C(=O)c3ccno3)C2)O1 (centres undefined) | 5.073%
CCn1c(CC2CCN(C(=O)c3cc(C(C)C)nn3C)CC2)n[nH]c1=O | 14.4%
COCCNc1nnc(-c2ccc(C)nc2)s1 | 25.93%
Cc1nccn1C1CCCN(C(=O)c2cc(O)nc3ccccc23)C1 (centres undefined) | 7.433%
CNS(=O)(=O)c1csc(C(=O)NCc2sccc2C)c1 | -0.6321%
O=C1CCN(C(=O)NCC(c2ccccc2)c2ccccc2)CCN1 | 4.704%
Cc1cc(NC(=O)CN2CCCC2c2noc(C)n2)n(C(C)(C)C)n1 (centres undefined) | -8.016%
O=C(CN1CCOCC1)N1CCN(C2CCc3ccc(F)cc32)CC1 (centres undefined) | -17.2%
O=C(CCc1ccc(-c2ccccc2)[nH]1)N1CCCC(n2ccnc2)C1 (centres undefined) | -67.19%
CN(CC1CC1)c1ccc2ccc(C(=O)NCCc3ccccc3)cn12 | 6.519%
Cc1ccc([C@@H]2CN(C(=O)c3ccc[nH]3)C[C@H]2NC(=O)C2CC2)cc1 | 4.035%
Cc1nc(C#N)c(N2CCC(c3nc(-c4ccccc4)no3)CC2)o1 | -14.52%
O=C(CCC(=O)N1CCCC1c1cccs1)N1CCc2sccc2C1 (centres undefined) | -3.43%
CCC(C)(C)NC(=O)Cn1nc(C)nc1-c1cccc(C)c1 | 5.452%
Cc1cc(C)c2c(N(C)CC3CCOC3)ncnc2n1 (centres undefined) | -16.69%
O=S(=O)(NCc1cccnc1OC1CCCC1)N1CCCCC1 | -13.46%
CC(=O)N1CCN(S(=O)(=O)c2ccc(C)c(F)c2)CC1 | 1.201%
COCc1c(C(=O)O)nnn1Cc1cccc(C(F)(F)F)c1 | 11.27%
Cc1cc(NCCCc2c(C)noc2C)nc(N)n1 | 3.378%
Cc1cc2cccc(C(=O)N3CC[C@@H](N)[C@H](O)C3)c2o1 | -21.98%
COC(=O)c1cc2c(OC)c(C)c(OC)cc2[nH]1 | -10.3%
Cc1nc(CN2CCN(C(=O)c3sccc3C3CC3)CC2)cs1 | -4.125%
CCOCCC(=O)N(C)Cc1noc(C(C)C)n1 | 1.33%
CC(NC(=O)Nc1nccs1)c1cccnc1 (centres undefined) | 4.607%
O=C(COC1CCCC1)NCc1ccc(O)c(F)c1 | -5.193%
COc1ccc(CNC(c2cccc(F)c2)c2cnn(C)c2)cc1 (centres undefined) | -0.9385%
Cc1cc(C)n(CC(=O)N(CC2CN(C)CCO2)c2nccs2)n1 (centres undefined) | -13.67%
CS(=O)(=O)N1CCCN(c2nccn3cnnc23)CC1 | -7.772%
Cc1csc2ncc(-c3ccnc(NC4CCOCC4)n3)c(=O)n12 | -36.25%
Cc1cnc(N2CC[C@@H]3OC(COCC(=O)N(C)C)CC[C@@H]32)nc1 (some centres undefined) | 3.259%
CNC(=O)c1ccnc(N2CCCC(COc3cccc(C)c3)C2)c1 (centres undefined) | -10.04%
Cc1nc(N2CCOCC2)nc(C)c1NC(=O)c1ccco1 | -3.225%
O=C(Cc1cccs1)NC1(C(=O)NCC2CC2)CCCC1 | -1.192%
CC(C)N(Cc1ccccn1)C(=O)CCOc1cccc(F)c1 | -7.663%
Cc1c(C(=O)NCCC(=O)N2CCCC2)oc2c(F)cccc12 | 11%
CC(C)N1CCC(C(=O)N(C)CC(=O)c2ccc(O)cc2)CC1 | -4.132%
Cc1n[nH]cc1CNC(C(=O)N1CCCCC1)c1ccccc1 (centres undefined) | 3.76%
Cc1ccc(C(=O)N(C)CC(=O)NCC(F)(F)F)cn1 | 12.75%
COc1ccc(-c2nc(C#N)c(N(C)C)o2)cc1S(=O)(=O)N1CCCC1 | -3.561%
CCOC(=O)C1CCN(C(=O)c2cnn(-c3ccccc3F)c2N)CC1 | 1.061%
CN(C)c1ncc2c(O)nc(C3CCNCC3)cc2n1 | -28.74%
Cc1cc(CCC2CN(CC3(O)CCCCC3)CCO2)ncn1 (centres undefined) | 7.745%
Cn1nccc1C(=O)N1CCOC(Cc2ccc(F)cc2)C1 (centres undefined) | -22.21%
Cc1ccc(OCCSC2=NCCN2)cc1 | -1.445%
O=C(c1cccc(-n2cccn2)c1)N1CCOC(CCO)C1 (centres undefined) | -3.619%
CS(=O)(=O)C1CCN(S(=O)(=O)c2ccc(F)c(F)c2)C1 (centres undefined) | -7.307%
CC(NC(=O)N1CCSC(C)(C)C1)c1noc(-c2ccccc2)n1 (centres undefined) | -3.389%
CC(C)n1nc2c(cc1=O)CN(c1ncnc3ccsc13)CC2 | -5.82%
COc1ccccc1N1CCC(CNCc2ccc(C#N)cc2)C1 (centres undefined) | -13.09%
COCC1CC2(CCN(C(=O)c3cc(C)oc3C)CC2)CN1C(C)C (centres undefined) | 5.39%
Cc1nn(C)c(N(C)C)c1CNCc1ccnc(N2CCCCC2)c1 | 9.027%
CCCc1nc(CN2CCCCC2Cn2cncn2)cs1 (centres undefined) | -10.6%
CC(C)c1cc2c(s1)NC(c1ccccc1)NC2=O (centres undefined) | -10.99%
COCCCOc1ccc(C(=O)N(C)CCC(C)C)cn1 | -4.313%
CNc1ccc(C(=O)N(C)Cc2ccc3ccccc3n2)cn1 | -4.58%
Cc1ccoc1C(=O)N1CCOCC2(CCN(c3ncccn3)C2)C1 (centres undefined) | -3.02%
Cc1ccccc1Cc1nc(CSc2nnc(N)n2C2CC2)no1 | -2.128%
c1cnn(Cc2ccc(CN3CCC4(CCNCC4)C3)cc2)c1 | -11.68%
N#Cc1cnn(C(=O)CCCOc2ccccc2Cl)c1N | 0.4797%
COCCN1CCCC(CN(C)c2nc3c(s2)c(C)nn3C)C1 (centres undefined) | -3.282%
O=C(NC1CC1)N1CCc2ncc(CN3CCOCC3)n2CC1 | 5.588%
COc1ncccc1CNC(=O)c1cccc(C)n1 | 29.52%
CN(C)CC(C)(O)CNC(=O)Nc1sc2ccccc2c1Cl (centres undefined) | -2.574%
Cn1ccc(CNC(=O)N2CCC(C3(C)OCCO3)CC2)c1 | -3.819%
COC(=O)N1CC2=CC(C)(C)COc3ccc(OC)c(c32)C1 | -4.336%
c1cc(-c2noc([C@@H]3CCCN3C3CCC3)n2)cc(N2CCCC2)n1 | -14.56%
c1ccc(-c2nc(CN3CCOC(Cn4cncn4)C3)cs2)cc1 (centres undefined) | -34.37%

Data taken from ChEMBL document CHEMBL3988442, “University of Dundee, Small-Polar-MMV Screening Library” (2021).